For some assays here: Results from cells or extracts need not show a direct contact. Tags and fusion partners may be left off the protein sequences shown.

For data set [1], the target named is T1, CD166 (ALCAM) on A2780-SP ovarian cancer stem cells (Homo sapiens) (UniProt Q13740).
T1 sequence (looked up, limits assumed): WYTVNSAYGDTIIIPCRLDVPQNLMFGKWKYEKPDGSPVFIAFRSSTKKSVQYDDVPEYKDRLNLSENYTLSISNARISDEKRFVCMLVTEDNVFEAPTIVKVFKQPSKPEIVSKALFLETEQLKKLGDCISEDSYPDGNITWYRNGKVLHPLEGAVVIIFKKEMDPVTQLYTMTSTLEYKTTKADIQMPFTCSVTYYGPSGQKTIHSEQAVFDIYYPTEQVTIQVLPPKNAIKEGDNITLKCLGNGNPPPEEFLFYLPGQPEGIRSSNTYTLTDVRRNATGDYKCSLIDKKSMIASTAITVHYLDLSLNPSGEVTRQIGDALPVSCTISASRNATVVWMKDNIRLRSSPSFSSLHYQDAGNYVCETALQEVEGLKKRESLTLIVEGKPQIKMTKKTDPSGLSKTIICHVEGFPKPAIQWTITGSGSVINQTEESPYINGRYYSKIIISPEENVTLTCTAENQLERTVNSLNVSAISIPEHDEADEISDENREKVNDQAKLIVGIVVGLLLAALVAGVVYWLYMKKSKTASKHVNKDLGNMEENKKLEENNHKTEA
Kind of data set: flow cytometry. The following applies: N = 5-(N-naphthylcarboxyamide)-2'-deoxyuridine (NapdU) at every N, 500 nM aptamer, room temperature, protein on the cell surface, protein details: endogenous, A2780-SP cell line (high CD166), single-stranded DNA. (Flow cytometry measures light scatter and fluorescence of single cells or particles in a stream.)

For data set [2], the target named is T2, CD166 (ALCAM) on mesenchymal stem cells (UniProt Q13740).
T2 sequence (looked up, limits assumed): T1 sequence (looked up, limits assumed)
Kind of data set: flow cytometry. The following applies: N = 5-(N-naphthylcarboxyamide)-2'-deoxyuridine (NapdU) at every N; 500 nM aptamer, room temperature; similar to anti-CD166 antibody; protein on the cell …; protein details: endogenous, normal mesenchymal stem cells; single-stranded DNA.

Data set [3] has as its target T1, CD166 (ALCAM) on A2780-SP ovarian cancer stem cells (Homo sapiens). Kind of data set: activity in cells. The following applies: N = 5-(N-naphthylcarboxyamide)-2'-deoxyuridine (NapdU) at every N, protein on the cell surface, protein details: endogenous, A2780-SP cell line (high CD166), single-stranded DNA.

In the case of “TCAGCCGCCAGCCAGTTCATTTGATAAAGCTCCGTTATCGGGCCCCTTGTAGAGTCATGACCAGAGCACCACAGAG [AT5 (clone 5)]”, the binding result in data set [1] (strongest binder of the six, similar to anti-CD166 …) is “binds”; in data set [2], “binds”. The “functional effect of the aptamer” value in data set [3] (reduced adhesion, proliferation, paclitaxel resistance, migration, p-PAXILLIN/p-SRC/p-FAK Y925 and tumor formation, dose not given here) is listed as “active”.
With “TCAGCCGCCAGCCAGTTCCTTCTAGAGTCATGCACGTTATCGGACCTGTCGGCGAATGGACCATATCACCACAGAG [AT4 (clone 4)]”, the binding result in data set [1] (called high affinity in Example 9) is “binds”. Also, the “functional effect of the aptamer” value in data set [3] (500 nM aptamer 1 h, reduced cell adhesion to collagen of CD166+ ovarian cancer stem cells) is recorded as “active”.

Source of the values: US12674167B2, “Aptamer specifically binding to cancer stem cells, and use thereof” (HiCELL Tech, priority 2019, dated 2026).
